Drawing on patent US20110312894A1 (priority 2009, published 2011), this text covers binding for one substance.

Chains of the proteins cited; added tags and fusions are not shown. Lines headed by an entry give the natural chain unless they say otherwise; changes in a name come on top. Residues count along the entry.
UniProt P49582, residues 23-502: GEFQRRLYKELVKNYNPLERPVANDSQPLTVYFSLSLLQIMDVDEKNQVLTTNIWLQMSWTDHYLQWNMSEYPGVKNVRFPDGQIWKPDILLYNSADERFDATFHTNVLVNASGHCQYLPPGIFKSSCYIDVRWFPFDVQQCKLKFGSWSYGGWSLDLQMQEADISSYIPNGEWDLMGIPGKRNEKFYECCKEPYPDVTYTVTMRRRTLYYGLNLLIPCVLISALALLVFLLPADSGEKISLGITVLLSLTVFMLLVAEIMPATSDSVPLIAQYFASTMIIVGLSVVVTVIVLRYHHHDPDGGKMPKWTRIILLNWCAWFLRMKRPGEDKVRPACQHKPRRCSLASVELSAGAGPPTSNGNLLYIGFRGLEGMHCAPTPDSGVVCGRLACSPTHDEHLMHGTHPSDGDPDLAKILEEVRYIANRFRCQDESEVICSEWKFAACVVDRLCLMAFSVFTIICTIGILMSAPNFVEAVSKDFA
UniProt Q9ERK7: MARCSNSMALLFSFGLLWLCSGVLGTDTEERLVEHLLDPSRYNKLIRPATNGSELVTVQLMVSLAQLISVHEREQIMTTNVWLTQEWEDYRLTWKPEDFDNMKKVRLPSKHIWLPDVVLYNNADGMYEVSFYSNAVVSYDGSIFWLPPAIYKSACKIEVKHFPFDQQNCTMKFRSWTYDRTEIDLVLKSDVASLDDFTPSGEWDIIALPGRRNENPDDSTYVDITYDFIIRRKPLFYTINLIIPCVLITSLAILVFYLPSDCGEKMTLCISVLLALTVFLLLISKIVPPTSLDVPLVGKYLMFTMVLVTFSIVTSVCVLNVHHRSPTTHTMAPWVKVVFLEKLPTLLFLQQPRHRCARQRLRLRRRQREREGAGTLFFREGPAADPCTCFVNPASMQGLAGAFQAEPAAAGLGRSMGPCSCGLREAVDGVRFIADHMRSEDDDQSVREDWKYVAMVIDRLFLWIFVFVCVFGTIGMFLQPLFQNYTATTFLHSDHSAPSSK

These are yes or no findings as the source states them, for the method shown. Binding seen in cells or lysates may run through a third protein. Some binding calls cover weakened binding; strength is not graded here.

The target in this test is mouse nicotinic acetylcholine receptor (nAChR) α7 subunit (mouse) (UniProt P49582). Description: co-immunoprecipitation from MS/DB extract of wild-type mice: IP with H302 anti-α7, immunoblot with mAb270 anti-β2.

Consider “mouse nicotinic acetylcholine receptor (nAChR) β2 subunit (from UniProt Q9ERK7 26-501)”, for which the binding result is given as “binds”.
